The full ranking holds about 3,200 compounds; the median of “TSA(without NAD+) / Primary screening (TSA) / delta Tm (K)” is about -0.07, and the highest 2% start at about 0.37. The list shows a part of the results.
Target: NAD-dependent deacetylase Sirtuin 1 (human, UniProt Q96EB6)
Assay: primary screen, delta tm
Parameters: single well (n = 1)
Conditions: 10 µM
Outline: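 Thermal shift of Sirtuin 1 measured without NAD+, compound at 10 µM (n = 1); value is ΔTm, with hits defined as ΔTm > 0.45 K or < −1.5 K. Hits retested at 5, 10, 20 µM (n = 4) and counterscreened on bovine carbonic anhydrase and ABL1 SH2 domain.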

The chains behind the UniProt entries cited, without tags or fusion partners. Residues count along the entry.
UniProt Q96EB6, 2-747 limits assumed: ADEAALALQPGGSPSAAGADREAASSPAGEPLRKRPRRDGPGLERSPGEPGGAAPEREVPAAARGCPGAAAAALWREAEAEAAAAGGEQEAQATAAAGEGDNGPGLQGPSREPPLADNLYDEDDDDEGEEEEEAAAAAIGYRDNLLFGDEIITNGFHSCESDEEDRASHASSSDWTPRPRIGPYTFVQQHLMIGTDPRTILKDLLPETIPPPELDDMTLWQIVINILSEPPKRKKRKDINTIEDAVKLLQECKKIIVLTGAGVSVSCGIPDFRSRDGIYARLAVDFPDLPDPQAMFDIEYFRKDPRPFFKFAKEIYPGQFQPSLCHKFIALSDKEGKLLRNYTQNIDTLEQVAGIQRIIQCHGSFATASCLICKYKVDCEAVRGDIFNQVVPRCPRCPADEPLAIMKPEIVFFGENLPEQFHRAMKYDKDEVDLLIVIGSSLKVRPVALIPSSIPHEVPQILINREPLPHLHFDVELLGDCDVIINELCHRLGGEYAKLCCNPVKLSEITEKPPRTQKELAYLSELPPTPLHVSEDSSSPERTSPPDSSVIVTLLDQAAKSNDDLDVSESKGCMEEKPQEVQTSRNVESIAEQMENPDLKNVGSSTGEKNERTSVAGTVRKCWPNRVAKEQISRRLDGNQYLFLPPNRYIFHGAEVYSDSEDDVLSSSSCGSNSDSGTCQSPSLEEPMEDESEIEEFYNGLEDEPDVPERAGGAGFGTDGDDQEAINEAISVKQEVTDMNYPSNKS

| Compound | TSA(without NAD+) / Primary screening (TSA) / delta Tm (K) |
| --- | --- |
| CCCCCCc1cc2c3c(c(=O)oc2cc1OCC(N)=O)CCC3 | 0.19 K |
| CN(C)c1ccc(CCC(=O)N2CCN(c3cnccn3)CC2)cc1 | -0.14 K |
| Cc1nc2cc(NC(=O)CCNC(=O)/C=C/c3ccccc3)ccc2o1 | -0.18 K |
| Cc1cc(C)n2nc(C(=O)Nc3cc(C(N)=O)cc(F)c3C)nc2n1 | -0.18 K |
| C=CCn1c(SCC(=O)NCc2ccccc2F)nc2ccsc2c1=O | 0.09 K |
| O=C(CN1CCN(c2ncnc3c2oc2ccccc23)CC1)c1cccs1 | -0.17 K |
| OCC1CCN(c2ncnc3ccsc23)CC1 | -0.14 K |
| Cc1nc(-c2cccnc2)nc(NCC2CCOC2)c1C (stereo not drawn) | -0.01 K |
| O=C1CC(c2ccccc2)c2ccc3ccccc3c2N1 (stereo not drawn) | -0.07 K |
| Cc1cc(S(=O)(=O)NCc2ccc(C(N)=O)cc2)sc1Cl | -0.11 K |
| O=C(Cc1n[nH]c(=O)c2ccccc12)Nc1ccc(N2CCN(Cc3ccccc3)CC2)cc1 | -0.03 K |
| CC1=NN(c2ccccc2)C(=O)/C1=C\c1cn(-c2ccccc2)nc1-c1cc2ccccc2oc1=O | -0.02 K |
| Cc1sc2nc(CSc3ccccc3)nc(N3CCC(C(N)=O)CC3)c2c1C | 0.52 K |
| O=C(Nc1cc(Br)c(F)cc1Cl)C1CCCO1 (stereo not drawn) | 0.19 K |
| O=C(CN1CCN(C(=O)c2ccccc2Oc2ccccc2)CC1)Nc1ccccc1Cl | -0.18 K |
| CC(NS(=O)(=O)c1ccc(C(N)=O)cc1)c1cc(F)c(Cl)cc1Cl (stereo not drawn) | 0.09 K |
| COc1ccc(OC)c(/C=C2/Oc3cc(O)ccc3C2=O)c1 | -0.02 K |
| Cc1ccc(-c2sc(-c3ccccc3)nc2CC(=O)N/N=c2/sc3ccccc3n2C)cc1 | -0.08 K |
| COc1cc(Br)c(/C=C2/Oc3cc(O)ccc3C2=O)cc1O | 0.08 K |
| NC(=O)C1CCN(CC(=O)Nc2cc(C3CCCC3)nn2-c2ccccc2)CC1 | -0.02 K |
| NC1=C(c2nc3ccccc3[nH]2)C(=O)CN1c1ccc(CC(=O)O)cc1 | -0.14 K |
| CC(=O)c1ccc(F)cc1NC(=O)C1CCCOC1 (stereo not drawn) | -0.07 K |
| Cc1cc(C(=O)COC(=O)c2ccc(C(N)=O)cc2)c(C)n1CC1CCCO1 (stereo not drawn) | -0.04 K |

A different layout for some results above:
Compound,TSA(without NAD+) / Primary screening (TSA) / delta Tm (K)
O=C(CN1CCN(c2ncnc3c2oc2ccccc23)CC1)c1cccs1,-0.17 K
OCC1CCN(c2ncnc3ccsc23)CC1,-0.14 K
Cc1nc(-c2cccnc2)nc(NCC2CCOC2)c1C (stereo not drawn),-0.01 K
O=C1CC(c2ccccc2)c2ccc3ccccc3c2N1 (stereo not drawn),-0.07 K
Cc1cc(S(=O)(=O)NCc2ccc(C(N)=O)cc2)sc1Cl,-0.11 K
O=C(Cc1n[nH]c(=O)c2ccccc12)Nc1ccc(N2CCN(Cc3ccccc3)CC2)cc1,-0.03 K
CC1=NN(c2ccccc2)C(=O)/C1=C\c1cn(-c2ccccc2)nc1-c1cc2ccccc2oc1=O,-0.02 K
Cc1sc2nc(CSc3ccccc3)nc(N3CCC(C(N)=O)CC3)c2c1C,0.52 K
O=C(Nc1cc(Br)c(F)cc1Cl)C1CCCO1 (stereo not drawn),0.19 K
O=C(CN1CCN(C(=O)c2ccccc2Oc2ccccc2)CC1)Nc1ccccc1Cl,-0.18 K
CC(NS(=O)(=O)c1ccc(C(N)=O)cc1)c1cc(F)c(Cl)cc1Cl (stereo not drawn),0.09 K
COc1ccc(OC)c(/C=C2/Oc3cc(O)ccc3C2=O)c1,-0.02 K
Cc1ccc(-c2sc(-c3ccccc3)nc2CC(=O)N/N=c2/sc3ccccc3n2C)cc1,-0.08 K
COc1cc(Br)c(/C=C2/Oc3cc(O)ccc3C2=O)cc1O,0.08 K

Remaining list, next part.

| Compound | TSA(without NAD+) / Primary screening (TSA) / delta Tm (K) |
| --- | --- |
| N#CC(C(=O)CN1CCN(Cc2ccccc2)CC1)c1ccccc1 (stereo not drawn) | -0.02 K |
| O=C(NC(=S)Nc1ccc(-c2nc3ccccc3[nH]2)cc1)C12CC3CC(CC(C3)C1)C2 | 0.58 K |
| Cn1c(-c2ccccc2)c(C(=O)N2CCCC2)c2ccccc21 | 0.16 K |
| O=C(O)c1ccc2[nH]c3c(c2c1)CNCC3 | -0.03 K |
| CC(O)CN1CCC(CN(C)Cc2cccc(C(N)=O)c2)CC1 (stereo not drawn) | 0.13 K |
| NC(=O)CC1CCN(C(=O)CCc2c[nH]c3ccccc23)CC1 | -0.03 K |
| CC(=O)Nc1ccc(NC(=O)c2ccccc2SCC(=O)NC23CC4CC(CC(C4)C2)C3)cc1 | -0.21 K |
| CCN1CCC(N)C1 (stereo not drawn) | 0.08 K |
| COc1ccc(N(C)S(=O)(=O)c2cccc(C(=O)Nc3ccc(Br)c(C(F)(F)F)c3)c2)cc1 | 0.62 K |
| CC(C)NS(=O)(=O)NC(C)C(=O)NCCc1c[nH]c2ccccc12 (stereo not drawn) | -0.05 K |
| CCN(CC)C1CCN(C(=O)Nc2cc(-n3cnnn3)ccc2F)C1 (stereo not drawn) | -0.12 K |
| CCc1c(C)c(C#N)c2nc3ccccc3n2c1Cl | -0.08 K |
| Cc1nn2c(nc(N3CCN(C4CCS(=O)(=O)C4)CC3)c3ccccc32)c1Cl (stereo not drawn) | 0.27 K |
| O=C(CCc1ccccc1)Nc1ccccc1Cc1ccccc1 | -0.12 K |
| CC(C)N(CC(N)=O)Cc1sc2ccccc2c1Cl | -0.43 K |
| COc1ccc(NC(=O)CSCC(=O)Nc2cccc(C)c2)cc1OCc1cn2ccccc2n1 | -0.07 K |
| O=c1[nH]c2ccc(CNCc3ccsc3)cc2[nH]1 | -0.28 K |
| O=C(O)c1nc(Nc2ccc(Cl)cc2)c2ccccc2n1 | -0.15 K |
| Cc1oc2nc[nH]c(=O)c2c1C(=O)NCc1ccc(OCc2ccccc2)cc1 | -0.12 K |
| c1ccc(-c2nnc(CSc3nnc(-c4cccs4)n3C3CC3)o2)cc1 | 0.02 K |
| O=C(CCc1c[nH]c2ccccc12)NCCc1ccco1 | -0.05 K |
| O=c1[nH]c(CSc2cc(Cl)ccc2Cl)nc2ccsc12 | 0.02 K |

— article PMC6925144, “A prospective compound screening contest identified broader inhibitors for Sirtuin 1” (Scientific Reports, 2019)
